In the supplement of paper PMC10849652:
This is one part of the list.

Protein sequences, listed by entry. Tags and fused reporters are not part of them. Lines headed by an entry give the natural chain unless they say otherwise; changes in a name come on top.
UniProt Q9P287, whole entry, looked up: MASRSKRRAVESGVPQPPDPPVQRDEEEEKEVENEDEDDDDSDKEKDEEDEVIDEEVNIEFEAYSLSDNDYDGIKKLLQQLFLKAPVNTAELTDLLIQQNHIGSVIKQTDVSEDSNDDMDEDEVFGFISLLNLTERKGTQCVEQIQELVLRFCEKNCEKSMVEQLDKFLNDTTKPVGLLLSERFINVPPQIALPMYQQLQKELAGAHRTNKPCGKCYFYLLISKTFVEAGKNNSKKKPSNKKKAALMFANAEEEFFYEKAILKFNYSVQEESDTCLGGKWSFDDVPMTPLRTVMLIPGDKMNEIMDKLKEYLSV
UniProt Q92560: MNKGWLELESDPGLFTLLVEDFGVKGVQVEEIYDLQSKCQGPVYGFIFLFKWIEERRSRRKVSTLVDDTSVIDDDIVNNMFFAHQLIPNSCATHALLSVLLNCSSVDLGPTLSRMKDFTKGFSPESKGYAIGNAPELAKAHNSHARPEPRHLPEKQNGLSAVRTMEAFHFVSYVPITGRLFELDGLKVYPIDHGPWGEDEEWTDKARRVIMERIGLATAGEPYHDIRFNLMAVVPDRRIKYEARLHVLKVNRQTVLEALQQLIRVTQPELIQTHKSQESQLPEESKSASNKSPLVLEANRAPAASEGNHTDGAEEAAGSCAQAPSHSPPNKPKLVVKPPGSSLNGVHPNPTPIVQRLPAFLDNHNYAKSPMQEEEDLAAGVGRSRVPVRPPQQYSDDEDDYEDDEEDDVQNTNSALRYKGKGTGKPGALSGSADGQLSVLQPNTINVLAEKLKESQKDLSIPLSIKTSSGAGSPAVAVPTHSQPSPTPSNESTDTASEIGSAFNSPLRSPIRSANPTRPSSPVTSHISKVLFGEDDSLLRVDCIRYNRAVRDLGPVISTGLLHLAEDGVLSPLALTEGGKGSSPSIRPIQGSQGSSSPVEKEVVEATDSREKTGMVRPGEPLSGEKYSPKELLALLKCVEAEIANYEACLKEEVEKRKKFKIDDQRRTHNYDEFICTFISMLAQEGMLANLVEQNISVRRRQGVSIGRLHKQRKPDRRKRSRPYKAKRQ
UniProt Q96GX2: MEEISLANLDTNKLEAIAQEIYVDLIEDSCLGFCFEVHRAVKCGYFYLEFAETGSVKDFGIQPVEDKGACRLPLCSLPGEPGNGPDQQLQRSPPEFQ
UniProt Q9NXR7, whole entry, looked up: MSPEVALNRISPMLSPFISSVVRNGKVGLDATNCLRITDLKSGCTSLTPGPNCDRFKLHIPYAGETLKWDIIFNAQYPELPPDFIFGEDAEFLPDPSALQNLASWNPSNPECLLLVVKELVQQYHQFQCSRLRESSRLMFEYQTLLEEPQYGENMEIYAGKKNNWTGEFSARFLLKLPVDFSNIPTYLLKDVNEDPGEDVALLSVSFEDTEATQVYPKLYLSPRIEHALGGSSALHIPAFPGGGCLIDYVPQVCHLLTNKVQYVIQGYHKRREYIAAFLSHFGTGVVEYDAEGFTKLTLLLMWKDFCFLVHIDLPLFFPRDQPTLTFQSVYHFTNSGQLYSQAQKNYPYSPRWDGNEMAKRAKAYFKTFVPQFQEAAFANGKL
UniProt Q8NFC6: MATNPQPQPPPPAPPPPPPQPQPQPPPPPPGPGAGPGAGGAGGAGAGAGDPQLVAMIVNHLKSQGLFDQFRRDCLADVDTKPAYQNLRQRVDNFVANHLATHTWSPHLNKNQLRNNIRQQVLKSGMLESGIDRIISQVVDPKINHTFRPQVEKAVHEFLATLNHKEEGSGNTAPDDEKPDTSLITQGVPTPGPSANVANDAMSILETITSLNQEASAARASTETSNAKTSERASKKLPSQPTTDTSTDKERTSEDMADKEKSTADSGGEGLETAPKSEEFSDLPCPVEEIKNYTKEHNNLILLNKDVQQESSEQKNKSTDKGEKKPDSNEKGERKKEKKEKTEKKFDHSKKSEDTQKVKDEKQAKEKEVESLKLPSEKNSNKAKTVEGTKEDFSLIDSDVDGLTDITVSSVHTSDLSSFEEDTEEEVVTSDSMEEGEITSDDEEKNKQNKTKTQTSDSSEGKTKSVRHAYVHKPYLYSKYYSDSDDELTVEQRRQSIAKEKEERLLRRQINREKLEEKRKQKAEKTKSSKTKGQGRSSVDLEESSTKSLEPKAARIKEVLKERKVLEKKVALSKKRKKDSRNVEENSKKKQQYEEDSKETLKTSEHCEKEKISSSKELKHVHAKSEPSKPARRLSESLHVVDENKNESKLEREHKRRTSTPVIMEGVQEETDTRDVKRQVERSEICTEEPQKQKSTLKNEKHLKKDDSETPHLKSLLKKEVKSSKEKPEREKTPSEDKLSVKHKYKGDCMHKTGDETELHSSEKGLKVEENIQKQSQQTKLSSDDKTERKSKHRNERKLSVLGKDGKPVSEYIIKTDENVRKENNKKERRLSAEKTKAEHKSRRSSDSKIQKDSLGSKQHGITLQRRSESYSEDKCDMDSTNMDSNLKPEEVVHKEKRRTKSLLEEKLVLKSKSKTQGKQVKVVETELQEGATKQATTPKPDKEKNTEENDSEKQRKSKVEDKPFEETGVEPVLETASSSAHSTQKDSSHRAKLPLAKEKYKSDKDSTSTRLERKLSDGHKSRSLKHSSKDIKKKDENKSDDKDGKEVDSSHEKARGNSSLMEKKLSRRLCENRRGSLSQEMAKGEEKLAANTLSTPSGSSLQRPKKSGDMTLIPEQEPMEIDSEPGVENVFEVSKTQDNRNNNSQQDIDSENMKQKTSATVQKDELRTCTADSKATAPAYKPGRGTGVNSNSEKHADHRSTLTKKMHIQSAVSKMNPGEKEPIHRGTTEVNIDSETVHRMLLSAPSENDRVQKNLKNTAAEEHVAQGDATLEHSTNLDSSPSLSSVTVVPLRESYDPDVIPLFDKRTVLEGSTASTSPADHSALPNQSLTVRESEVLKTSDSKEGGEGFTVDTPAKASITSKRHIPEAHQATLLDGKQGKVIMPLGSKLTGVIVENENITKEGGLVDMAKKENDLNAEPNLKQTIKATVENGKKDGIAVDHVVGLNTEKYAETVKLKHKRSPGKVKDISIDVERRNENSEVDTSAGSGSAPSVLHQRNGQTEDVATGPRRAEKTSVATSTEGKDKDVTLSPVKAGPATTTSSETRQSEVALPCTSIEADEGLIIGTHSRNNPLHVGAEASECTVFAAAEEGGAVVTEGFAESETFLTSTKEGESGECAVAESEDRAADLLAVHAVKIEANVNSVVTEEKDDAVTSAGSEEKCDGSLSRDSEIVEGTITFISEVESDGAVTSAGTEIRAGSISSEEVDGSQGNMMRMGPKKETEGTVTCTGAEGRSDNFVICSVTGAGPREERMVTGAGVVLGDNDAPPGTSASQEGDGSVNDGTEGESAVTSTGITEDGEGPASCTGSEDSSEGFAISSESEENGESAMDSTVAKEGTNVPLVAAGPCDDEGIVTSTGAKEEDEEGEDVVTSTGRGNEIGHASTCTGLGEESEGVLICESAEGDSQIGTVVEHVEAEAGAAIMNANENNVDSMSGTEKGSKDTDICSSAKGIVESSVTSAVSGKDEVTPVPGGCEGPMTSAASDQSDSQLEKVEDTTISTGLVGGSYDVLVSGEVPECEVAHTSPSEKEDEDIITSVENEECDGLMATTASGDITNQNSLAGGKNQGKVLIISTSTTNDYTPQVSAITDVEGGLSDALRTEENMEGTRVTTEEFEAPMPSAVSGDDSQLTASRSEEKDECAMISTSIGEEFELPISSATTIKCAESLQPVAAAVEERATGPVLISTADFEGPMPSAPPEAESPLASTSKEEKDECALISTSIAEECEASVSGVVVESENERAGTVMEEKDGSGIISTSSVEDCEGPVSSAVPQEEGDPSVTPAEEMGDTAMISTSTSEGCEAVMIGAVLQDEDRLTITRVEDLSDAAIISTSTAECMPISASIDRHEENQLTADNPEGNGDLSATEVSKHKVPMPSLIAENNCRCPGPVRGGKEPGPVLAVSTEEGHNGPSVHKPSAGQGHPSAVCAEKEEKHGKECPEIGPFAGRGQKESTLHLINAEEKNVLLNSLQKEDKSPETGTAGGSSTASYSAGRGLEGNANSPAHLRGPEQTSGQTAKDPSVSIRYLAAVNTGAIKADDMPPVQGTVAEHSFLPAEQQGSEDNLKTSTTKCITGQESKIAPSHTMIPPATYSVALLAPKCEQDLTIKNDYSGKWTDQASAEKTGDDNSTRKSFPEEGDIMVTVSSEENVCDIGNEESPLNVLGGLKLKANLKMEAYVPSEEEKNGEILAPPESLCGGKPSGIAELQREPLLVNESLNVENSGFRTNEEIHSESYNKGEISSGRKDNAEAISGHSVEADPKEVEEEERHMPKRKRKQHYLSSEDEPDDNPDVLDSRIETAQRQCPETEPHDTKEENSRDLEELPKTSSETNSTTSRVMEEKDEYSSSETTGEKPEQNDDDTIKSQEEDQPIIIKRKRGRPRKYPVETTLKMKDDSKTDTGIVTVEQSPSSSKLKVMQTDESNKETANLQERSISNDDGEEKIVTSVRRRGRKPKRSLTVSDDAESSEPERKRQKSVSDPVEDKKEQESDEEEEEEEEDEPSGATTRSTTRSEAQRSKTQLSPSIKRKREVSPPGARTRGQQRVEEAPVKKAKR
UniProt Q9NY97: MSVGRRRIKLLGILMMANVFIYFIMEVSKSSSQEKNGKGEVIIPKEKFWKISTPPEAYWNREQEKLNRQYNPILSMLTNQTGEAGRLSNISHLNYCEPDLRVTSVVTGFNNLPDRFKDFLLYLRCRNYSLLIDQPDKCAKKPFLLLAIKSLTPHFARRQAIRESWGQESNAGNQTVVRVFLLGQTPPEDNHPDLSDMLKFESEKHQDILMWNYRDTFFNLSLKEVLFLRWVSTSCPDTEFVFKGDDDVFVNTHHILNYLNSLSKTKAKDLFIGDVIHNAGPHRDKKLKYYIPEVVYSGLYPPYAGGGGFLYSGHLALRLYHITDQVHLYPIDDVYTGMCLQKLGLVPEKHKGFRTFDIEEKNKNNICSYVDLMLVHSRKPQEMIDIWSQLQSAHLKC
UniProt Q7Z569: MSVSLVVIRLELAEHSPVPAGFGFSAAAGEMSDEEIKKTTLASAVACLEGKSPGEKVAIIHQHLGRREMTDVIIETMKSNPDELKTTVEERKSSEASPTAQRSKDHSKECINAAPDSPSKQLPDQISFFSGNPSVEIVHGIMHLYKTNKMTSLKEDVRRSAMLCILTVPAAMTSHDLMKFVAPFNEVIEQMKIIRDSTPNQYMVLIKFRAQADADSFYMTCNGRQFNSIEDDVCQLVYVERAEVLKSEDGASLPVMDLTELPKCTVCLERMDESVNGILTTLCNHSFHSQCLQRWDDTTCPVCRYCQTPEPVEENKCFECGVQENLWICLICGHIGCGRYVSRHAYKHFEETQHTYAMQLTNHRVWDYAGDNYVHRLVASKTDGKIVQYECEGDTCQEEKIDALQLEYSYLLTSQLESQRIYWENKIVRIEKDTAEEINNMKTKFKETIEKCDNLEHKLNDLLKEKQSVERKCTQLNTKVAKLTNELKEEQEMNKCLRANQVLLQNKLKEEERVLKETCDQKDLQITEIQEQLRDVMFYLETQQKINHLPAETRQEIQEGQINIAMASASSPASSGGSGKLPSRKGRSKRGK
UniProt Q9UHR4: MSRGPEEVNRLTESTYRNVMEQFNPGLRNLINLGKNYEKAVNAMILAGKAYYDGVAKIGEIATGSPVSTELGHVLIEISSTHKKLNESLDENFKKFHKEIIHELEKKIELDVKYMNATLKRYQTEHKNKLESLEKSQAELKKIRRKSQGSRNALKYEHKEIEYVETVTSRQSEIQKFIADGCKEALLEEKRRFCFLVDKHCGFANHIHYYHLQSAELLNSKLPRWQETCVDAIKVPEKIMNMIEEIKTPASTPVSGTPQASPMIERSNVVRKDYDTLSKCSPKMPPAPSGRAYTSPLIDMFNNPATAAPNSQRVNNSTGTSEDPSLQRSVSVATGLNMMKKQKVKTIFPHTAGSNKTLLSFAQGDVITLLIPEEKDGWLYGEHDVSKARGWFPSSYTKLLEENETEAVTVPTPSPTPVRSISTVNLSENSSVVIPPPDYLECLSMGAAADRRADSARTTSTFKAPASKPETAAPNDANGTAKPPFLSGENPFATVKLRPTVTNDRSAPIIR
UniProt Q14457, whole entry, looked up: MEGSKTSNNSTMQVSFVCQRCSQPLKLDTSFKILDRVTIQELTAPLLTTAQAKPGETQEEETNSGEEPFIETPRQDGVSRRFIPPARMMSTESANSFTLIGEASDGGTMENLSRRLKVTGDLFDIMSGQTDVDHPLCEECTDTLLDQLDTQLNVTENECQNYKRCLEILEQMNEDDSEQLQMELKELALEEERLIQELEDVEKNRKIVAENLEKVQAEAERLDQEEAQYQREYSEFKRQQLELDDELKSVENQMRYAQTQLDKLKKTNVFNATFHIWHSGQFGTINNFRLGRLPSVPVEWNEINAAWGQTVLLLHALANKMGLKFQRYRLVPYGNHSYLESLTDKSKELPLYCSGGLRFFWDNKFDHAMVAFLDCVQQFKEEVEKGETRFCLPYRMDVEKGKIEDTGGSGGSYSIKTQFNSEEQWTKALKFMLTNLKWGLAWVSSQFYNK

Key:
Assay in all cases: log2 fold change, soluble protein after heating vs DMSO (PISA); higher = thermal stabilisation; K562 cells, 10 uM, 30 min; active = over 0.2 and 3.5 SD of the protein, either way, in both replicates (recomputed)
[1] = compound: C1=CC=C(C=C1)[C@H](COC2=CC3=C(C=C2)NC(=O)N3)NC(=O)C4=CC=CN(C4=O)CC5=CC(=C(C=C5)F)F
Summary of the method: (§1)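 Values are thermal stability changes relative to control samples and are taken from duplicates. They are stated as log2 fold changes. Before quantification by TMTpro 16plex LC-MS/MS with equalised channel sums, K562 cells at 2×10^6 cells/mL were treated with 10 μM compound for 30 min, heated in aliquots for 3 min across 48°C-58°C, pooled, extracted in PBS with 0.5% NP-40 at 4°C, and centrifuged at 21,000xg for 90 min to give the soluble supernatant.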

[2] = compound: CC1=C(SC2=C1C(=N[C@H](C3=NN=C(N32)C)CC(=O)N)C4=CC=C(C=C4)Cl)C
Summary of the method: as §1

[3] = compound: CC1=C2C(=CC=C1)N=C(N(C2=O)C3=CC=CC=C3C)CN4C=NC5=C(N=CN=C54)N
Summary of the method: as §1

[4] = compound: Cc1sc2c(c1C)C(c1ccc(Cl)cc1)=N[C@@H](CC(=O)OC(C)(C)C)c1nnc(C)n1-2
Summary of the method: as §1

[5] = compound: c1ccc([C@@H]2C[C@H]2NC2CCNCC2)cc1
Summary of the method: as §1

Measured: log2 fold change

BPNT1 (UniProt O95861)
inactive: [1] 0.026 | [2] 0.006 | [3] 0.013 | [4] -0.025 | [5] 0.007

BORCS7 (UniProt Q96B45)
inactive: [1] 0 | [2] 0.195 | [3] 0.129 | [4] -0.083 | [5] -0.196

BMP1 (UniProt P13497)
inactive: [1] -0.051

BCCIP isoform 2 (UniProt Q9P287)
inactive: [1] -0.031 | [2] 0.002 | [3] -0.001 | [4] -0.035 | [5] 0.014

BRD8 isoform 2 (UniProt Q9H0E9)
inactive: [1] 0.035 | [2] -0.091 | [3] 0.167 | [4] 0.046 | [5] 0.038

ATRIP (UniProt Q8WXE1)
inactive: [1] -0.025 | [2] 0.111 | [3] 0.066 | [4] 0.061 | [5] 0.061

BCAT2 (UniProt O15382)
inactive: [1] 0.015 | [2] 0.048 | [3] 0 | [4] -0.036 | [5] 0.042

BAP1 (UniProt Q92560)
inactive: [1] -0.226 | [2] -0.123 | [3] -0.156 | [4] 0.066 | [5] -0.037

AUP1 (UniProt Q9Y679)
inactive: [1] -0.044 | [2] 0.053 | [3] 0.028 | [4] -0.074 | [5] -0.051

ATXN7L3B (UniProt Q96GX2)
inactive: [1] 0.012 | [2] 0.051 | [3] 0.093 | [4] -0.025 | [5] 0.049

ATXN2 (UniProt Q99700)
inactive: [1] 0.004 | [2] 0.005 | [3] -0.003 | [4] 0.038 | [5] 0.014

BABAM2 (UniProt Q9NXR7)
inactive: [1] 0.061 | [2] 0.005 | [3] -0.038 | [4] 0.015 | [5] -0.021

BLOC1S3 (UniProt Q6QNY0)
inactive: [1] -0.048 | [2] 0.084 | [3] 0.088 | [4] -0.113 | [5] -0.06

BOD1L1 (UniProt Q8NFC6)
inactive: [1] 0.023 | [2] -0.036 | [3] -0.031 | [4] 0.032 | [5] 0.027

Taken from the results shown (two entries):
ATXN2 (UniProt Q99700)
inactive: [1] 0.004 | [2] 0.005 | [3] -0.003 | [4] 0.038 | [5] 0.014

BABAM2 (UniProt Q9NXR7)
inactive: [1] 0.061 | [2] 0.005 | [3] -0.038 | [4] 0.015 | [5] -0.021

Further results:

BRD8 (UniProt Q9H0E9)
inactive: [1] 0.027 | [2] -0.009 | [3] 0.023 | [4] 0.009 | [5] 0.021

BIRC6 (UniProt Q9NR09)
inactive: [1] 0.01 | [2] -0.001 | [3] 0.027 | [4] 0.016 | [5] 0.003

AUH (UniProt Q13825)
inactive: [1] 0.015 | [2] 0.065 | [3] -0.116 | [4] -0.042 | [5] -0.001

B3GNT2 (UniProt Q9NY97)
inactive: [1] 0.021 | [2] 0.133 | [3] 0.047 | [4] 0.049 | [5] -0.037

BCL10 (UniProt O95999)
inactive: [1] -0.111 | [2] -0.106 | [3] 0.059 | [4] 0.017 | [5] 0.006

BRAP (UniProt Q7Z569)
inactive: [1] -0.058 | [2] 0.025 | [3] 0.05 | [4] 0.081 | [5] 0

BCAR1 isoform 6 (UniProt P56945)
inactive: [1] -0.046 | [2] 0.054 | [3] 0.202 | [4] 0.138 | [5] 0.022

BID isoform 2 (UniProt P55957)
inactive: [1] -0.036 | [2] 0.059 | [3] 0.081 | [4] -0.076 | [5] -0.053

BIRC5 (UniProt O15392)
inactive: [1] -0.03 | [2] -0.127 | [3] -0.104 | [4] -0.065 | [5] 0.037

BCAP31 isoform 2 (UniProt P51572)
inactive: [1] -0.003 | [2] -0.012 | [3] 0 | [4] -0.003 | [5] -0.001

BAIAP2L1 (UniProt Q9UHR4)
inactive: [1] 0.013 | [2] 0.029 | [3] 0.038 | [4] 0.025 | [5] 0.011

BECN1 (UniProt Q14457)
inactive: [1] -0.071 | [2] 0.061 | [3] -0.017 | [4] 0.021 | [5] 0.05

BCL2L2 isoform 2 (UniProt Q92843)
inactive: [1] 0.045 | [2] -0.017 | [3] 0.053 | [4] 0.111 | [5] 0.083
